Experiment [1] has as its target T1, TNFR1-Fas chimeric receptor (extracellular domain of TNFR1 and cytoplasmic domain of death receptor Fas) on mouse embryonic fibroblasts (human) (UniProt P19438+P25445). Nature of the experiment: saturation binding curve and Scatchard plot on receptor positive cells.
Experiment [2] has as its target T1, TNFR1-Fas chimeric receptor (extracellular domain of TNFR1 and cytoplasmic domain of death receptor Fas) on mouse embryonic fibroblasts (human). Nature of the experiment: indirect immunofluorescence flow cytometry, FITC-labelled His-specific detection antibody. (A flow cytometer gives signals particle by particle.)

The chains behind the UniProt entries cited, without tags or fusion partners. Where a name states a change or a piece, a line headed by the entry shows the natural chain unless it says otherwise.
UniProt P19438: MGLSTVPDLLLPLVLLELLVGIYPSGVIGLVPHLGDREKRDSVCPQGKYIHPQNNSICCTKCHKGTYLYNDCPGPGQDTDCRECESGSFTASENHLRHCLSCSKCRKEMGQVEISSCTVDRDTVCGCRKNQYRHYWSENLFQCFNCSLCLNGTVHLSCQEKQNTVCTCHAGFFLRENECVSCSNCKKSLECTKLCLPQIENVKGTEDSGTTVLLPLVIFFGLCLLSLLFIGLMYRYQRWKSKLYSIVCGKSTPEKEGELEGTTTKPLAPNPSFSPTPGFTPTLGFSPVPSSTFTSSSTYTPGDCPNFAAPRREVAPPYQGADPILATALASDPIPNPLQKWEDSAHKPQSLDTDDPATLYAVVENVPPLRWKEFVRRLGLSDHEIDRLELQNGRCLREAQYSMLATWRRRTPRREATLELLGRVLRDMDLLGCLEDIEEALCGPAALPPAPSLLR
UniProt P25445: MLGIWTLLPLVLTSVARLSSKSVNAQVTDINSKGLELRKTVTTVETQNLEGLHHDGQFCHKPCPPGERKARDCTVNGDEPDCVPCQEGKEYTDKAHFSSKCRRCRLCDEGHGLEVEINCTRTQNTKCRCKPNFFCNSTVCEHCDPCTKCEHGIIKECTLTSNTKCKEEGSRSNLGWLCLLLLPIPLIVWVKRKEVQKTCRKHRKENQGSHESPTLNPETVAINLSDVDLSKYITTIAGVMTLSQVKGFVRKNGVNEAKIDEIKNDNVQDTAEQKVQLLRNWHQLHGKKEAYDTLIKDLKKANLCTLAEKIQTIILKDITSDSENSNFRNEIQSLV

These are yes or no findings as the source states them, for the method shown. Some entries that bind do so weakly or less than the wild type.

The source of these data is patent US20100150916A1 (UNIVERSITAET STUTTGART, published 2010).

B1: IZI-06.1 Fab (Fab, V domains shown)
VH: QVQLVQSGAEVKKPGSSVKVSCKASGYTFTDFYINWVRQAPGQGLEWIGEIYPYSGHAYYNEKFKARVTITADKSTSTAYMELSSLRSEDTAVYYCARWDFLDYWGQGTTVTVSS
VL: DIVMTQSPLSLPVTPGEPASISCRSSQSLLHSNGNTYLHWYLQKPGQSPQLLIYTVSNRFSGVPDRFSGSGSGTDFTLKISRVEAEDVGVYYCSQSTHVPYTFGGGTKVEIKR
modifications: 125I-labelled (chloramine T method) in the saturation binding study
notes: Fab expressed in the E. coli periplasm; the pelB leader is removed; also called humanized H398-Fab; Fab IZI-06.1; not shown: CH1 domain of the human immunoglobulin gamma1 heavy chain
On to B1, for which the binding result in experiment [1] and in experiment [2] was “binds” in each case.
